{"source": "PubChem BioAssay AID504786 (Drosophila RNAi Screening Center, 2011)", "purpose": "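Positive regulators of HIF-driven reporter output in Drosophila cells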 (primary screen)", "cell system": "Drosophila S2 cells with a stable HIF luciferase reporter", "knock-down reagent": "long dsRNA against Drosophila genes, about 0.2 µg dsRNA per well of a 384-well plate", "duration": "three days of knock-down, then 20 h of DFO before reading", "treatment": "desferrioxamine (DFO) at 100 µM, an iron chelator that mimics hypoxia, for 20 h", "measured": "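Firefly luciferase driven by the mouse ldh-a hypoxia-response element, measured after 20 h of 100 µM DFO; z-scores per plate, higher means more signal lost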", "reading the numbers": "z-score: higher = stronger loss of HIF reporter signal", "note": "In all, the deposit lists about 21,000 reagents; this is a random part of those with a known target gene and a result. 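Primary screen; positive scores mean lost reporter signal, so the sign may be inverted from the usual convention.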 A plus sign joins genes that one reagent is predicted to hit. Reagent sequences are not shown."}
{"gene":"CG9143 (GeneID 37296)","amplicon":"DRSC07338","z-score, replicate 1":-0.2,"z-score, replicate 2":-0.3}
{"gene":"CG33017 (GeneID 36811)","amplicon":"DRSC06573","z-score, replicate 1":-0.3,"z-score, replicate 2":-0.4}
{"gene":"CG33017 (GeneID 36811)","amplicon":"DRSC06574","z-score, replicate 1":-0.4,"z-score, replicate 2":-1}
{"gene":"CG15201 (GeneID 32053)","amplicon":"DRSC19648","z-score, replicate 1":-0.2,"z-score, replicate 2":-0.6}
{"gene":"Dnz1 (GeneID 34503)","amplicon":"DRSC03317","z-score, replicate 1":-0.3,"z-score, replicate 2":-0.6}
{"gene":"Vps2 (GeneID 43164)","amplicon":"DRSC14886","z-score, replicate 1":-0.3,"z-score, replicate 2":1.7}
{"gene":"mrn (GeneID 39688)","amplicon":"DRSC10913","z-score, replicate 1":-0.4,"z-score, replicate 2":0}
{"gene":"Ttc7 (GeneID 48387)","amplicon":"DRSC04836","z-score, replicate 1":0,"z-score, replicate 2":0}
{"gene":"CG10208 (GeneID 42814)","amplicon":"DRSC14211","z-score, replicate 1":-0.4,"z-score, replicate 2":0.5}
{"gene":"CG14204 (GeneID 32950)","amplicon":"DRSC19559","z-score, replicate 1":-0.6,"z-score, replicate 2":0.6}
{"gene":"PGRP-SC2 (GeneID 35862)","amplicon":"DRSC06481","z-score, replicate 1":-0.2,"z-score, replicate 2":-0.4}
{"gene":"CG3907 (GeneID 37832)","amplicon":"DRSC04432","z-score, replicate 1":-0.1,"z-score, replicate 2":-0.3}
{"gene":"Agpat4 (GeneID 39819)","amplicon":"DRSC10446","z-score, replicate 1":-0.1,"z-score, replicate 2":0}
{"gene":"CG9521 (GeneID 32414)","amplicon":"DRSC20196","z-score, replicate 1":-0.3,"z-score, replicate 2":-0.6}
{"gene":"Amy-d + Amy-p","amplicon":"DRSC21242","z-score, replicate 1":-0.3,"z-score, replicate 2":-0.7}
{"gene":"Ir75c (GeneID 39983)","amplicon":"DRSC10190","z-score, replicate 1":-0.2,"z-score, replicate 2":-1.6}
{"gene":"Mics1 (GeneID 40898)","amplicon":"DRSC12537","z-score, replicate 1":-0.4,"z-score, replicate 2":-0.8}
{"gene":"CG14763 (GeneID 35757)","amplicon":"DRSC06497","z-score, replicate 1":-0.3,"z-score, replicate 2":-0.2}

A few values from above:
Under “z-score, replicate 1”, Dnz1 (GeneID 34503) [DRSC03317] has -0.3
CG14763 (GeneID 35757) [DRSC06497], z-score, replicate 1 → -0.3
mrn (GeneID 39688) [DRSC10913], z-score, replicate 2 → 0

More records follow.
{"gene":"beta4GalNAcTB (GeneID 43425)","amplicon":"DRSC14869","z-score, replicate 1":-0.5,"z-score, replicate 2":-0.4}
{"gene":"mIF2 (GeneID 43382)","amplicon":"DRSC14510","z-score, replicate 1":-0.2,"z-score, replicate 2":-0.3}
{"gene":"CG5909 (GeneID 43274)","amplicon":"DRSC15914","z-score, replicate 1":-0.2,"z-score, replicate 2":-0.1}
{"gene":"RpL30 (GeneID 44059)","amplicon":"DRSC02087","z-score, replicate 1":4.6,"z-score, replicate 2":3.7}
{"gene":"CG15649 (GeneID 37371)","amplicon":"DRSC04240","z-score, replicate 1":-0.3,"z-score, replicate 2":-0.6}
{"gene":"Ama (GeneID 40831)","amplicon":"DRSC12489","z-score, replicate 1":-0.5,"z-score, replicate 2":-0.7}
{"gene":"CG12147 (GeneID 40651)","amplicon":"DRSC12192","z-score, replicate 1":-0.2,"z-score, replicate 2":-0.2}
{"gene":"CG6106 (GeneID 32816)","amplicon":"DRSC19971","z-score, replicate 1":-0.3,"z-score, replicate 2":-0.7}
{"gene":"Np (GeneID 35904)","amplicon":"DRSC06089","z-score, replicate 1":-0.3,"z-score, replicate 2":-0.5}
{"gene":"Np (GeneID 35904)","amplicon":"DRSC07094","z-score, replicate 1":-0.3,"z-score, replicate 2":-0.3}
{"gene":"CG3287 (retired record) (GeneID 48441)","amplicon":"DRSC04991","z-score, replicate 1":-0.3,"z-score, replicate 2":-0.4}
{"gene":"CG15019 (GeneID 38542)","amplicon":"DRSC08473","z-score, replicate 1":-0.1,"z-score, replicate 2":-0.4}
{"gene":"CG13786 (GeneID 34006)","amplicon":"DRSC02289","z-score, replicate 1":-0.3,"z-score, replicate 2":-0.3}
{"gene":"Ugt49B1 (GeneID 37420)","amplicon":"DRSC04461","z-score, replicate 1":-0.1,"z-score, replicate 2":-0.2}
{"gene":"Acsl (GeneID 46068)","amplicon":"DRSC07252","z-score, replicate 1":-0.5,"z-score, replicate 2":-0.7}
{"gene":"CG42271 (GeneID 2768892)","amplicon":"DRSC19809","z-score, replicate 1":-0.5,"z-score, replicate 2":-0.7}
{"gene":"Oatp74D (GeneID 39954)","amplicon":"DRSC09491","z-score, replicate 1":0.2,"z-score, replicate 2":-0.1}
{"gene":"Oatp74D (GeneID 39954)","amplicon":"DRSC10883","z-score, replicate 1":-0.3,"z-score, replicate 2":-0.6}
{"gene":"Sirt6 (GeneID 41254)","amplicon":"DRSC16010","z-score, replicate 1":-0.3,"z-score, replicate 2":0.2}
{"gene":"or (GeneID 43943)","amplicon":"DRSC04329","z-score, replicate 1":-0.4,"z-score, replicate 2":-0.3}
{"gene":"CG31730 (GeneID 318920)","amplicon":"DRSC01308","z-score, replicate 1":-0.4,"z-score, replicate 2":-0.1}
{"gene":"gNacalpha (GeneID 33279)","amplicon":"DRSC00654","z-score, replicate 1":-0.2,"z-score, replicate 2":-0.1}
